Hit rate of the full screen: of about 59,000 compounds, about 6,500 (11%) were called active. Inconclusive means that the source gave no clear call. Such entries were picked first, then a sample of the others. Cut-off read from the data, not from the text of the source: active = max dye-equivalent concentration above about 10 nM; inconclusive = mostly about 1.1 nM to 9.6 nM; inactive = weaker than that.
Experiment: qHTS Assay for Spectroscopic Profiling in A350 Spectral Region
Conditions: Compound autofluorescence, 340/450 nm, Alexa 350 dye-equivalents; hits give high values

Row | Structure (SMILES) | max dye-equivalent concentration
1 | O=C(CN1CCCCCC1)NCCc1ccc(F)cc1 | inactive
2 | O=C(COc1ccc(S(=O)(=O)N2CCc3ccccc32)cc1Cl)NCc1ccccn1 | inconclusive: 2 nM
3 | O=C1CC(N2CCC(c3nc4ccccc4o3)CC2)C(=O)N1c1ccc(Cl)cc1 (stereo not given) | inactive
4 | Cc1[nH]n(-c2ccc(S(=O)(=O)O)cc2)c(=O)c1N=Nc1ccccc1 | inconclusive: 9.9 nM
5 | COc1ccc(CCNC(=O)C2CCN(S(=O)(=O)c3c(C)noc3C)CC2)cc1OC | inactive
6 | CN(C)c1ccc(C(=O)OCC(=O)c2cccs2)cc1 | inconclusive: 1.8 nM
7 | O=C(CN1CCN(C(=O)c2cccc(F)c2)CC1)NC1CCCCC1 | inconclusive: 1.2 nM
8 | O=C(O)c1cc(=O)c2ccc(Cl)cc2[nH]1 | inconclusive: 4.3 nM
9 | COc1ccc2nc(C)cc(C(=O)O)c2c1 | active: 71 nM
10 | O=C(CCNc1cccc(Cl)c1)c1ccco1 | inactive
11 | COc1ccccc1-c1nnc2sc(COc3ccc(Cl)cc3)nn12 | inactive
12 | Cn1c2ccc(F)cc2c2ncn(CCN3CCOCC3)c(=O)c21 | inconclusive: 9 nM
13 | CC1(C)Oc2ccc3ccc(=O)oc3c2-c2cn[nH]c21 | inconclusive: 2.6 nM
14 | O=C1c2oc3ccccc3c(=O)c2C(c2cccnc2)N1Cc1ccco1 (stereo not given) | inconclusive: 3.8 nM
15 | Cc1ccc(S(=O)(=O)NCCNC(=O)C2CCCNC2=O)cc1 (stereo not given) | inconclusive: 2.4 nM
16 | O=C(Nc1cccc(F)c1)N1CCCC2(CCNCC2)C1 | inconclusive: 3.8 nM
17 | O=C(O)c1cccc(CSc2ncccn2)c1 | inconclusive: 1.1 nM
18 | c1ccc(-n2ncc3c2ncn2nnnc32)cc1 | inactive
19 | Cc1nc2ccccc2nc1N1CCC(C)CC1 | inconclusive: 2.5 nM
20 | O=C(NCc1ccccn1)c1ccc(NC(=O)c2ccco2)cc1 | inactive

Row | Structure (SMILES) | max dye-equivalent concentration
21 | Nc1cc(-c2ccncc2)c[nH]c1=O | active: 12 nM
22 | COc1ccc2nc(SCC(=O)Nc3ccccc3C#N)[nH]c2c1 | inconclusive: 2.4 nM
23 | Oc1ccc2[nH]ccc2c1 | inconclusive: 1.1 nM
24 | Cn1nccc1/C=C(/C#N)S(=O)(=O)c1ccccc1 | inconclusive: 2 nM
25 | CCC(=O)Nc1cc(C)c(NC(=O)C23CC4CC(CC(C4)C2)C3)cn1 | inconclusive: 2 nM
26 | CC(C)Cc1nc(N2CCN(C(=O)c3ccco3)CC2)c(C#N)c2c1CCC2 | active: 30 nM
27 | CC(C)c1nnc(NC(=O)c2c(O)c3cccc4c3n(c2=O)CC4)s1 | inconclusive: 8.1 nM
28 | Nc1ccn([C@H]2O[C@@H](COP(=O)(O)O)[C@@H](O)[C@H]2O)c(=O)n1 | inactive
29 | O=C(Nc1ccc2ncccc2c1)Nc1ccc2ncccc2c1 | inconclusive: 4.4 nM
30 | COc1cc2[nH]c3c(N4CCN(c5ccccn5)CC4)ncnc3c2cc1OC | inconclusive: 9.8 nM
31 | CN(C)CCNc1oc(COc2cccc(Cl)c2)nc1C#N | inconclusive: 1.9 nM
32 | Cc1cc(C(F)(F)F)nn1-c1nc(-c2ccco2)cc(C(F)(F)F)n1 | inconclusive: 3.4 nM
33 | CN1CCN(C(=O)c2cc3sccc3n2CC(=O)c2ccccc2)CC1 | inconclusive: 1.5 nM
34 | CCCCC(SCC(=O)Nc1ccccc1)C(=O)O (stereo not given) | inactive
35 | COc1cc(C(=O)NCCC(=O)NCCN2CCOCC2)cc(OC)c1OC | inactive
36 | CCOC(=O)N1CCN(CC(=O)Nc2cc(OCC)ccc2OCC)CC1 | inconclusive: 1.5 nM
37 | O=C(Nc1cccc(N2CCCC2)c1)c1cccs1 | inconclusive: 3.9 nM
38 | CCN(CC)S(=O)(=O)c1ccc2oc(C(=O)NCc3ccc(F)cc3)c(C)c2c1 | inactive
39 | NC(=O)CSc1nc2sc3c(c2c2ncnn12)CCCC3 | inconclusive: 1.6 nM
40 | NC(=O)CSc1nnc(-c2ccc(S(=O)(=O)N3CCCC3)cc2)n1CC1CCCO1 (stereo not given) | inconclusive: 1.4 nM

Row | Structure (SMILES) | max dye-equivalent concentration
41 | Cc1cc(NC(=O)CCCS(=O)(=O)c2nc(-c3cccs3)cc(C(F)(F)F)n2)no1 | active: 130 nM
42 | COC(=O)COc1ccc2oc(=O)cc(C)c2c1 | active: 28 nM
43 | CN(C)/C=C1\N=C(c2ccc(Cl)cc2Cl)OC1=O | inconclusive: 6.3 nM
44 | CC(=O)OCc1c(COC(C)=O)[n+](=O)c2ccccc2n1[O-] | inconclusive: 4 nM
45 | CCCCc1ccc2nc(NC(=O)OC)[nH]c2c1 | active: 14 nM
46 | O=C(O)c1cc(NCc2ccc3c(c2)OCO3)ccc1N1CCOCC1 | inconclusive: 4.8 nM
47 | CCOC(=O)N1CCN(CC(=O)Nc2c(C(=O)OC)[nH]c3ccc(Cl)cc23)CC1 | inconclusive: 2.6 nM
48 | COc1ccc(CN2CC(C(=O)NCc3cccc(OC)c3)CC2=O)cc1 (stereo not given) | inactive
49 | FC(F)(F)c1nc(SCc2ccc(Cl)cc2)n[nH]1 | inconclusive: 2.3 nM
50 | COc1ccccc1NC(=O)c1ccc(C)s1 | inconclusive: 1.9 nM
51 | N#Cc1ccc(OCCN2C(=O)NC3(CCSC3)C2=O)cc1 (stereo not given) | inconclusive: 1.8 nM
52 | Fc1ccc(-c2cc(C(F)(F)F)nc(N3CCCCC3)n2)cc1 | active: 51 nM
53 | CCOc1cccc(NC(=O)CC#N)c1 | inactive
54 | CCC(=O)OCC(=O)[C@@]1(OC(=O)CC)[C@H](C)C[C@@H]2[C@H]3CCC4=CC(=O)C=C[C@]4(C)[C@]3(Cl)[C@@H](O)C[C@@]21C | inactive
55 | CCn1cc(C(C)(C)C)c(C#N)c1NC(C)=O | inconclusive: 2.9 nM
56 | CC(C)(C)NCc1cc2ccccc2[nH]c1=O | inconclusive: 2 nM
57 | CCOc1cc(C(=O)N2CCN(c3ccc(C(C)=O)cc3)CC2)cc(OCC)c1OCC | inconclusive: 2.7 nM
58 | Cc1oc(C)c(C(N)=O)c1C(N)=O | active: 41 nM
59 | N#Cc1nc(-c2ccc(Cl)cc2)oc1NCc1cccc2c1OCO2 | inactive
60 | O[C@@](CCN1CCCCC1)(c1ccccc1)[C@@H]1C[C@H]2C=C[C@@H]1C2 | inconclusive: 3.2 nM

Gathered by group, the compounds so far containing a tert-butyl group (2)
Row | Structure (SMILES) | max dye-equivalent concentration
55 | CCn1cc(C(C)(C)C)c(C#N)c1NC(C)=O | inconclusive: 2.9 nM
56 | CC(C)(C)NCc1cc2ccccc2[nH]c1=O | inconclusive: 2 nM

From PubChem BioAssay AID590 (National Center for Advancing Translational Sciences (NCATS), 2007)
